Measured data: PubChem BioAssay AID1259308 (NCATS, 2017)
Screen: 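Candidate targets for better recombinant protein yield in mammalian cells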 (primary screen). Cells: human HEK293 embryonic kidney cells stably expressing firefly luciferase (HEK-CMV-Luc2-Hygro). Knock-down reagent: single siRNA against human genes, 0.8 pmol siRNA per well. Timing: 72 h. Measured: 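Reporter luminescence and viable-cell signal on separate replicate plates, given as percent of non-targeting control and median/MAD z-scores, plus per-cell luciferase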. Direction: total luciferase, z-score and total luciferase, % of control: higher = more reporter protein produced. Active means: 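Active when the median/MAD z-score for overall luciferase is greater than 3; a gene was taken forward for validation with new siRNAs if at least two of its three siRNAs passed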. Meaning of the calls: active = raised luciferase; inactive = no rise.
The whole screen tested about 59,000 reagents; below is a random part of them. About 1,510 of all reagents (2.6%) were called active. 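Calls use total luciferase alone and ignore viability, so some active siRNAs may act by altering cell number.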 A number with no mark means an inactive call. Not all columns of the deposit are shown.

TRMT13 (GeneID 54482) [SID160741772] | total luciferase, z-score: -0.629; total luciferase, % of control: 69.4
TRMT13 (GeneID 54482) [SID160741773] | total luciferase, z-score: 2.73; total luciferase, % of control: 136
TRMT13 (GeneID 54482) [SID160741775] | total luciferase, z-score: -0.377; total luciferase, % of control: 74.4
MFSD1 (GeneID 64747) [SID160747889] | total luciferase, z-score: -0.96; total luciferase, % of control: 62.8
MFSD1 (GeneID 64747) [SID160747890] | total luciferase, z-score: -1.93; total luciferase, % of control: 43.4
MFSD1 (GeneID 64747) [SID160747891] | total luciferase, z-score: -0.512; total luciferase, % of control: 71.7
LOC150519 (retired record) (GeneID 150519) [SID160758985] | total luciferase, z-score: -0.248; total luciferase, % of control: 77
LOC150519 (retired record) (GeneID 150519) [SID160758986] | total luciferase, z-score: 0.771; total luciferase, % of control: 97.2
LOC150519 (retired record) (GeneID 150519) [SID160758987] | total luciferase, z-score: 0.259; total luciferase, % of control: 87
MRPL44 (GeneID 65080) [SID160748244] | total luciferase, z-score: 0.337; total luciferase, % of control: 88.6
MRPL44 (GeneID 65080) [SID160748245] | total luciferase, z-score: 0.235; total luciferase, % of control: 86.6
MRPL44 (GeneID 65080) [SID160748246] | total luciferase, z-score: 1.84; total luciferase, % of control: 119
MAP1LC3BP1 (GeneID 392288) [SID160733285] | total luciferase, z-score: 1.04; total luciferase, % of control: 102
MAP1LC3BP1 (GeneID 392288) [SID160766748] | total luciferase, z-score: -0.173; total luciferase, % of control: 78.4
MAP1LC3BP1 (GeneID 392288) [SID160766749] | total luciferase, z-score: -1.48; total luciferase, % of control: 52.4
ELMOD3 (GeneID 84173) [SID160751835] | total luciferase, z-score: 1.94; total luciferase, % of control: 121
ELMOD3 (GeneID 84173) [SID160751836] | total luciferase, z-score: 2.64; total luciferase, % of control: 134
ELMOD3 (GeneID 84173) [SID160751837] | total luciferase, z-score: -1.17; total luciferase, % of control: 58.6
TMC3 (GeneID 342125) [SID160764584] | total luciferase, z-score: -1.56; total luciferase, % of control: 50.9
TMC3 (GeneID 342125) [SID160764585] | total luciferase, z-score: 2.4; total luciferase, % of control: 130
TMC3 (GeneID 342125) [SID160764586] | total luciferase, z-score: 0.197; total luciferase, % of control: 85.8
STARD6 (GeneID 147323) [SID160758494] | total luciferase, z-score: -1.31; total luciferase, % of control: 55.9
STARD6 (GeneID 147323) [SID160758495] | total luciferase, z-score: 0.339; total luciferase, % of control: 88.6
STARD6 (GeneID 147323) [SID160758496] | total luciferase, z-score: -1.02; total luciferase, % of control: 61.7
ANKZF1 (GeneID 55139) [SID160743034] | total luciferase, z-score: 1.82; total luciferase, % of control: 118
ANKZF1 (GeneID 55139) [SID160743036] | total luciferase, z-score: 1.46; total luciferase, % of control: 111
ANKZF1 (GeneID 55139) [SID160743037] | total luciferase, z-score: 1.07; total luciferase, % of control: 103
LOC100287477 (GeneID 100287477) [SID160770235] | total luciferase, z-score: 1.7; total luciferase, % of control: 116
LOC100287477 (GeneID 100287477) [SID160770236] | total luciferase, z-score: 1.09; total luciferase, % of control: 104
LOC100287477 (GeneID 100287477) [SID160770237] | total luciferase, z-score: -0.162; total luciferase, % of control: 78.7
ARMH4 (GeneID 145407) [SID160758229] | total luciferase, z-score: -0.665; total luciferase, % of control: 68.7
ARMH4 (GeneID 145407) [SID160758231] | total luciferase, z-score: -0.643; total luciferase, % of control: 69.1
ARMH4 (GeneID 145407) [SID160758232] | total luciferase, z-score: 0.412; total luciferase, % of control: 90.1

3 of these entries, set out differently.
| gene | PubChem SID | total luciferase, z-score | total luciferase, % of control |
| --- | --- | --- | --- |
| TRMT13 (GeneID 54482) | SID160741773 | 2.73 | 136 |
| TRMT13 (GeneID 54482) | SID160741775 | -0.377 | 74.4 |
| MFSD1 (GeneID 64747) | SID160747889 | -0.96 | 62.8 |
